Results from publication PMC2652392, “The Structural Basis of Gas-Responsive Transcription by the Human Nuclear Hormone Receptor REV-ERBβ” (PLoS Biology, 2009).
No constants are given. Whether binding was seen depends on the method and setting. Some binding calls cover weakened binding; strength is not graded here.

Target: T1, SMRT interaction domain I (IDI) peptide
T1 sequence (peptide, fluorescein on the N-terminus): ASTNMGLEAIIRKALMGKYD
Assay: fluorescence polarisation; unpublished data; 110 nM N-terminally fluorescein-labelled SMRT peptide with a dilution series of LBD; 100 mM Tris pH 8.2, 150 mM NaCl; absence and presence of heme and gas; both purified

- binding: binds
B1: REV-ERBα ligand-binding domain (residues 274–614 with an internal deletion of residues 324–422) (domain or fragment, UniProt P20393)
chain: TPPRSPSPEPTVEDVISQVARAHREIFTYAHDKLGSSPGNFNANHASGSPYPHGRSGRTVQEIWEDFSMSFTPAVREVVEFAKHIPGFRDLSQHDQVTLLKAGTFEVLMVRFASLFNVKDQTVMFLSRTTYSLQELGAMGMGDLLSAMFDFSEKLNSLALTEEELGLFTAVVLVSADRSGMENSASVEQLQETLLRALRALVLKNRPLETSRFTKLLLKLPDLRTLNNMHSEKLLSFRVDAQ
